Measured values from patent publication US20080194456A1, “Compositions And Methods Related To An Intestinal Inflammation And Uses Therefor” (The General Hospital Corporation, priority 2004, published 2008).
For at least one compound, name, drawing or mass did not settle the structure.

Test system: grim-19 mRNA in Caco-2 cells
Experiment: Real time RT-PCR of grim-19 mRNA in Caco-2 cells
Type: cell-based, human
Details: Caco-2 cells stimulated with RA, IFN-α or both
Experimental: Total RNA of IEC lines were extracted using Trizol (INVITROGEN) according to the manufacturer's instructions. For reverse transcription, 2 μg of total RNA was transcribed with RT PCR reagents provided in the SUPERSCRIPT FIRST-STRAND SYNTHESIS SYSTEM (INVITROGEN). Real time RT-PCR was performed in an ABI Prism 7000 Sequence Detector using SYBR Green JumpStart™ detection system. Briefly, 50 ng of the reversed transcribed cDNA were used for each PCR reaction with 200 nM of forward and reverse primers. Primers used for PCR had the following sequences: Forward 5-[…]-3, Reverse 5-[…]-3 (GRIM-19, 194 bp); Forward 5-[…]-3, Feverse 5-[…]-3 (glyceraldehyde-3-phosphate dehydrogenase [GAPDH], 440 bp). The following PCR program was used: 50° C. for 2 minutes, then 95° C. for 10 minutes followed by 40 cycles of 95° C. for 15 seconds, 60° C. for 15 seconds and 72° C. for 15 seconds. The threshold cycle (CT) values were obtained for the reactions reflecting quantity of the template in the sample. GRIM-19 Delta CT (ΔCT) was calculated by subtracting the GAPDH CT value from the GRIM-19 CT value and thus, represented the relative quantity of the target molecule after normalizing with the internal standard GAPDH. The GRIM-19 ΔCT values of Caco-2 cells infected with Salmonella, or transfected with pcDNA4/HisMAX-GRIM 19 were expressed as the percentage of GRIM-19 ΔCT values of control Caco-2 cells.

## CC1=C(/C=C/C(C)=C/C=C/C(C)=C/C(=O)O)C(C)(C)CCC1 [RA, retinoic acid, reference compound]
  grim-19 mRNA expression: did not show increased GRIM-19 expression
